Measured values: patent US20140357841A1 (Peking University Shenzhen Graduate School, priority 2013, published 2014)

Experiment: general procedure: peptide synthesis; CTC resin; HATU/DIEA (cyclisation)
Settings: cyclisation step, HPLC

## Ac-cyclo(1,5)-monoS5AAAC-NH2
  purity (crude or final not stated): 10.7948%
